Measured values: PMC10558455
No constants are given. Whether binding was seen depends on the method and setting. In cells and extracts the contact can be indirect. Here binding means that the protein was enriched with, or labelled near, the bait; the list need not be complete. Sequences can lack the tags named with a protein. One block for each binder: values may come before it.

Target: T1, GFP-Rab41 (human) (UniProt Q5JT25)
T1 sequence: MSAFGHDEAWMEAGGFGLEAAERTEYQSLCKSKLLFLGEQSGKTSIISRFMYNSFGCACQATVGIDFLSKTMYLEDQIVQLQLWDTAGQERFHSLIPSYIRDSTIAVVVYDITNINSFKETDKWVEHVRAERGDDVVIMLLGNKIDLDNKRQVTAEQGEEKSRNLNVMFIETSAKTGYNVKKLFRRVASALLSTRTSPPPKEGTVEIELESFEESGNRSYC
Experiment: affinity purification with mass spectrometry; HEK293T expressing GFP or GFP-Rab41, treated with DMSO or LLOMe; GFP-Trap beads; n = 4; proteins found in the GFP-only condition removed

B1: RNF185 (protein, UniProt Q96GF1 1-192)
chain: MASKGPSASASPENSSAGGPSGSSNGAGESGGQDSTFECNICLDTAKDAVISLCGHLFCWPCLHQWLETRPNRQVCPVCKAGISRDKVIPLYGRGSTGQQDPREKTPPRPQGQRPEPENRGGFQGFGFGDGGFQMSFGIGAFPFGIFATAFNINDGRPPPAVPGTPQYVDEQFLSRLFLFVALVIMFWLLIA
binding: binds

B4: endogenous VPS4A (identified by mass spectrometry) (protein, UniProt Q9UN37 1-437)
chain: MTTSTLQKAIDLVTKATEEDKAKNYEEALRLYQHAVEYFLHAIKYEAHSDKAKESIRAKCVQYLDRAEKLKDYLRSKEKHGKKPVKENQSEGKGSDSDSEGDNPEKKKLQEQLMGAVVMEKPNIRWNDVAGLEGAKEALKEAVILPIKFPHLFTGKRTPWRGILLFGPPGTGKSYLAKAVATEANNSTFFSVSSSDLMSKWLGESEKLVKNLFELARQHKPSIIFIDEVDSLCGSRNENESEAARRIKTEFLVQMQGVGNNNDGTLVLGATNIPWVLDSAIRRRFEKRIYIPLPEEAARAQMFRLHLGSTPHNLTDANIHELARKTEGYSGADISIIVRDSLMQPVRKVQSATHFKKVCGPSRTNPSMMIDDLLTPCSPGDPGAMEMTWMDVPGDKLLEPVVCMSDMLRSLATTRPTVNADDLLKVKKFSEDFGQES
binding: binds

Further lines, results first:

binding: binds
B2: CLTA (protein, UniProt P09496 1-248)
chain: MAELDPFGAPAGAPGGPALGNGVAGAGEEDPAAAFLAQQESEIAGIENDEAFAILDGGAPGPQPHGEPPGGPDAVDGVMNGEYYQESNGPTDSYAAISQVDRLQSEPESIRKWREEQMERLEALDANSRKQEAEWKEKAIKELEEWYARQDEQLQKTKANNRVADEAFYKQPFADVIGYVTNINHPCYSLEQAAEEAFVNDIDESSPGTEWERVARLCDFNPKSSKQAKDVSRMRSVLISLKQAPLVH

binding: binds
B3: endogenous TOM1L2 (protein, UniProt Q6ZVM7 1-507)
chain: MEFLLGNPFSTPVGQCLEKATDGSLQSEDWTLNMEICDIINETEEGPKDAIRALKKRLNGNRNYREVMLALTVLETCVKNCGHRFHILVANRDFIDSVLVKIISPKNNPPTIVQDKVLALIQAWADAFRSSPDLTGVVHIYEELKRKGVEFPMADLDALSPIHTPQRSVPEVDPAATMPRSQSQQRTSAGSYSSPPPAPYSAPQAPALSVTGPITANSEQIARLRSELDVVRGNTKVMSEMLTEMVPGQEDSSDLELLQELNRTCRAMQQRIVELISRVSNEEVTEELLHVNDDLNNVFLRYERFERYRSGRSVQNASNGVLNEVTEDNLIDLGPGSPAVVSPMVGNTAPPSSLSSQLAGLDLGTESVSGTLSSLQQCNPRDGFDMFAQTRGNSLAEQRKTVTYEDPQAVGGLASALDNRKQSSEGIPVAQPSVMDDIEVWLRTDLKGDDLEEGVTSEEFDKFLEERAKAAEMVPDLPSPPMEAPAPASNPSGRKKPERSEDALFAL

binding: binds
B5: KCTD19 (protein, UniProt Q17RG1 1-926)
chain: MEESGMAHESAEDLFHFNVGGWHFSVPRSKLSQFPDSLLWKEASALTSSESQRLFIDRDGSTFRHVHYYLYTSKLSFSSCAELNLLYEQALGLQLMPLLQTLDNLKEGKHHLRVRPADLPVAERASLNYWRTWKCISKPSEFPIKSPAFTGLHDKAPLGLMDTPLLDTEEEVHYCFLPLDLVAKYPSLVTEDNLLWLAETVALIECECSEFRFIVNFLRSQKILLPDNFSNIDVLEAEVEILEIPALTEAVRWYRMNMGGCSPTTCSPLSPGKGARTASLESVKPLYTMALGLLVKYPDSALGQLRIESTLDGSRLYITGNGVLFQHVKNWLGTCRLPLTETISEVYELCAFLDKRDITYEPIKVALKTHLEPRTLAPMDVLNEWTAEITVYSPQQIIKVYVGSHWYATTLQTLLKYPELLSNPQRVYWITYGQTLLIHGDGQMFRHILNFLRLGKLFLPSEFKEWPLFCQEVEEYHIPSLSEALAQCEAYKSWTQEKESENEEAFSIRRLHVVTEGPGSLVEFSRDTKETTAYMPVDFEDCSDRTPWNKAKGNLVRSNQMDEAEQYTRPIQVSLCRNAKRAGNPSTYSHCRGLCTNPGHWGSHPESPPKKKCTTINLTQKSETKDPPATPMQKLISLVREWDMVNCKQWEFQPLTATRSSPLEEATLQLPLGSEAASQPSTSAAWKAHSTASEKDPGPQAGAGAGAKDKGPEPTFKPYLPPKRAGTLKDWSKQRTKERESPAPEQPLPEASEVDSLGVILKVTHPPVVGSDGFCMFFEDSIIYTTEMDNLRHTTPTASPQPQEVTFLSFSLSWEEMFYAQKCHCFLADIIMDSIRQKDPKAITAKVVSLANRLWTLHISPKQFVVDLLAITGFKDDRHTQERLYSWVELTLPFARKYGRCMDLLIQRGLSRSVSYSILGKYLQED
